Results as given in the supplement of paper PMC10338343.
± gives the standard deviation. Only a part is listed here, and it is no random draw. The uncertainty is large for many entries.

The sequences below were run on MIWI (PIWIL1) piRISC loaded with L1MC piRNA (30 nt) (assay: pre-steady-state target cleavage rate (min^-1); MIWI and MILI are mouse PIWI proteins and EfPiwi is from a freshwater sponge; tags in brackets are library labels; higher = faster piRNA-guided slicing of the target). Conditions: guide: L1MC piRNA 5'p-UAACUAAAUACUAUGCAAGCUGUAGGUCCU; auxiliary factor: none (no GTSF1).
Outline: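 In Cleave-'n-Seq, a transcribed, DNA-blocked target RNA library (0.1 nM) was combined with 1 nM active affinity-purified piRISC bearing one synthetic guide, with or without 500 nM GTSF1 partner protein. Reactions ran in HEPES–potassium acetate buffer at 33 °C for 0–8 or 0–960 min. Uncleaved targets were sequenced and normalised to depth and to weakly complementary targets, three trials were pooled, and k3 was capped at 0.0001 min^-1. The pre-steady-state cleavage rate was obtained by fitting a burst-and-steady-state model.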

**Q.** For UCGACCUACAGCUAGCAUAGUAUUUAGAAA, which “pre-steady-state target cleavage rate” value is on record?
**A.** Its value is 0.00208 ± 0.0028.

**Q.** With AGGACCUACAGCUUCGAUAGUAUUUUCAAA as the sequence, how does the “pre-steady-state target cleavage rate” value read?
**A.** Its value is 0.000215 ± 0.017.

**Q.** For UCCACCUACAGCUUGCAUAGUAAUUACAAA, which “pre-steady-state target cleavage rate” value is on record?
**A.** Its value is 0.00086 ± 0.0079.

**Q.** UCCACCUACAGCUUGCAUAUGUAUUUAGUUA was tested. Which “pre-steady-state target cleavage rate” value did it give?
**A.** The value was 0.000726 ± 0.0086.

**Q.** UCGACCUACAGCUUGCUAAGUAUUUACAAA was tested. Which “pre-steady-state target cleavage rate” value did it give?
**A.** Its value is 0.00102 ± 0.0062.

**Q.** How did the “pre-steady-state target cleavage rate” value turn out when AGGACCUACAGGUUCCAUAGUAUUUAGUUA was run?
**A.** The value was 0.0023 ± 0.0027.

**Q.** For “UCCACCUACAGCUUGCAUAGUUAAAUCAAA [g10:g27:cont:t1A]”, which “pre-steady-state target cleavage rate” value is on record?
**A.** Its value is 0.000214 ± 0.013.

**Q.** With UCCUGGAUGUCGAUGCAUACUAUUUAGAUA as the sequence, how does the “pre-steady-state target cleavage rate” value read?
**A.** The value was 0.000349 ± 0.014.

**Q.** For “UCCUGGAUGUCGAAGCAUAGUAUUUUCAAA [g6:g16:cont:t1A]”, which “pre-steady-state target cleavage rate” value is on record?
**A.** The value was 0.000281 ± 0.017.

**Q.** How did the “pre-steady-state target cleavage rate” value turn out when “UCCUGGAACAGCUUGCAUAGUAUUAUCAAA [g7:g23:cont:t1A]” was run?
**A.** The value was 0.0021 ± 0.0045.

**Q.** Which “pre-steady-state target cleavage rate” value does the source give for UGGACCUACAGCAUGCAUAGUAUUUUCAAA here?
**A.** Its value is 0.00173 ± 0.0041.

**Q.** UCCUGGAUGUCGAACCUUAGUAUUUAGUAA was tested. Which “pre-steady-state target cleavage rate” value did it give?
**A.** Its value is 0.000291 ± 0.012.

**Q.** With UCGACCUACAGCUUGCAUUCUAUUUUCAAA as the sequence, how does the “pre-steady-state target cleavage rate” value read?
**A.** Its value is 0.000436 ± 0.015.

**Q.** UCGACCUACAGCAAGCAUAGUAUUUACAAA was tested. Which “pre-steady-state target cleavage rate” value did it give?
**A.** Its value is 0.000635 ± 0.0075.

**Q.** UCCUGGAUGUCGAACGAUAGCAUUUAGUUA was tested. Which “pre-steady-state target cleavage rate” value did it give?
**A.** Its value is 0.000167 ± 0.031.

**Q.** How did the “pre-steady-state target cleavage rate” value turn out when UCGACCUACAGCAACCAUAGUAUUUAGAAA was run?
**A.** The value was 0.000266 ± 0.012.

**Q.** With UCGACCUACAGCUUCGUUAGUAUUUUCAAA as the sequence, how does the “pre-steady-state target cleavage rate” value read?
**A.** Its value is 0.000215 ± 0.013.

**Q.** How did the “pre-steady-state target cleavage rate” value turn out when “AGGACCUACAGCUUGCUAUCAUAAAUCAAA [g15:g30:cont:t1A]” was run?
**A.** The value was 0.000524 ± 0.013.

**Q.** Which “pre-steady-state target cleavage rate” value does the source give for UGGACCUACAGCUUCCAUAGAAUUUAGUUA here?
**A.** The value was 0.000549 ± 0.0037.

**Q.** For UCCACCUACAGCUUGCAUAGUAUAAUGAAA, which “pre-steady-state target cleavage rate” value is on record?
**A.** The value was 0.00146 ± 0.0047.

**Q.** How did the “pre-steady-state target cleavage rate” value turn out when UGGACCUACAGCUAGCAUAGUAUUUUCAAA was run?
**A.** Its value is 0.00167 ± 0.0049.

**Q.** UGGACCUACAGCAACCAUAGUAUUUAGUUA was tested. Which “pre-steady-state target cleavage rate” value did it give?
**A.** Its value is 0.00148 ± 0.0026.

**Q.** AGGACCUACAGCUUGCAUAGAUAUUAGAAA was tested. Which “pre-steady-state target cleavage rate” value did it give?
**A.** Its value is 0.000826 ± 0.012.

**Q.** For AGGACCUACAGCUACCAUAGUAUUUAGAAA, which “pre-steady-state target cleavage rate” value is on record?
**A.** The value was 0.000372 ± 0.0093.

**Q.** For UCCUGGAUGUCGAUGGAUAGUAUAUAGUUA, which “pre-steady-state target cleavage rate” value is on record?
**A.** Its value is 0.00033 ± 0.023.

**Q.** For UCCUGGAUGUCGAACGAUAGUAUUUACUUA, which “pre-steady-state target cleavage rate” value is on record?
**A.** Its value is 0.000157 ± 0.034.

**Q.** Which “pre-steady-state target cleavage rate” value does the source give for UGGACCUACAGCUUGCAUAGUAAAUAGAAA here?
**A.** Its value is 0.00116 ± 0.0046.

**Q.** For UCCACCUACAGCUUGCAUUCAAUUUACAAA, which “pre-steady-state target cleavage rate” value is on record?
**A.** The value was 0.000568 ± 0.013.

**Q.** How did the “pre-steady-state target cleavage rate” value turn out when AGGACCUACAGCUUGCAUUCAAUUUAGAAA was run?
**A.** The value was 0.000685 ± 0.009.

**Q.** How did the “pre-steady-state target cleavage rate” value turn out when UCCACCUACAGCUUCCAUAGUAUUUACUUA was run?
**A.** Its value is 0.000798 ± 0.0089.

**Q.** For UGGACCUACAGCUUGCAUUAGUAUUUAGUUA, which “pre-steady-state target cleavage rate” value is on record?
**A.** The value was 0.000469 ± 0.0074.

**Q.** How did the “pre-steady-state target cleavage rate” value turn out when UCGACCUACAGCUUGCAUACUAUUUUCAAA was run?
**A.** The value was 0.000842 ± 0.0052.

**Q.** For “UCCUGGAUGAGCUUGCAUAGUAUUAUCAAA [g7:g21:cont:t1A]”, which “pre-steady-state target cleavage rate” value is on record?
**A.** Its value is 0.00189 ± 0.0025.

**Q.** How did the “pre-steady-state target cleavage rate” value turn out when UCGACCUACAGCAUGCAUAGUAUUUACAAA was run?
**A.** The value was 0.00232 ± 0.003.

**Q.** For AGGACCUACAGCUACGAUAGUAUUUAGUAA, which “pre-steady-state target cleavage rate” value is on record?
**A.** Its value is 0.000323 ± 0.011.

**Q.** AGGACCUACAGCUUGCAUAGUAUAAUCAAA was tested. Which “pre-steady-state target cleavage rate” value did it give?
**A.** The value was 0.00143 ± 0.0063.

**Q.** With UCCACCUACAGCAUGCAUAGUAUUUUCAAA as the sequence, how does the “pre-steady-state target cleavage rate” value read?
**A.** The value was 0.000721 ± 0.007.

**Q.** For UCCUGGAUGUCGAACGUUAGUAUUUAAUUA, which “pre-steady-state target cleavage rate” value is on record?
**A.** Its value is 0.000198 ± 0.025.
